Experimental findings from PubChem BioAssay AID2685 (National Center for Advancing Translational Sciences (NCATS), 2010) are described below.

Each structure is given as a SMILES string. Some of the results follow. These are further read-outs of the screen, such as a control signal, another cell line or another target. No call is given for them. Compounds called inactive in the main read-out are mostly missing here. The note in brackets gives the kind of curve behind each potency; many fits are weak.

A short description of this experiment: qHTS Assay for Lipid Storage Modulators in Drosophila S3 Cells.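 For cell number change: cells counted by Cell Tracker Red CMTPX staining in the red channel.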 The settings on record: BODIPY lipid droplet fluorescence, 18-24 h; for cell number change: measured here: cell count max response, cells fed with added oleic acid. The procedure, abridged: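 Drosophila S3 cells loaded with oleic acid (400 uM, as added) and compounds at several concentrations; lipid droplets imaged by 488-nm laser-scanning cytometry, 500–530 nm intensity and object ratio to cell channel. Percent activity normalized to 20 uM Triacsin C.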
For orientation: Quantitative high-throughput screening tests each substance at several concentrations.

Setting [1] is: measured here: lipid fluorescence (Fed channel) AC50, cells fed with added oleic acid.
Setting [2] is: measured here: cell number channel AC50, cells fed with added oleic acid.

As a reminder, the AC50 is the concentration at which the activity in the assay is half-maximal. High values mean weaker potency, low ones greater potency. For the molecule `CCOC(=O)C1CCCN(CC(=O)Nc2c(C(=O)OC)[nH]c3ccc(Cl)cc23)C1` (centres undefined), the cell number change is -27.4%. In addition, the AC50 under setting [1] is 3.26 µM [rising, partial curve].
For `COC(=O)CC1C(=O)NC(C)=C1C(=O)OC` (centres undefined), the cell number change was -21.2%. For the same molecule, the AC50 under setting [1] was 1.46 µM [falling, full curve].
Take `O=S(=O)(c1cc(F)ccc1F)N1CCN(c2ccccn2)CC1`: the cell number change was 18.2%. Moreover, under setting [1], the AC50 is 0.58 µM [rising, single point].
Consider `CCOC(=O)c1ccc(NCCOC)c([N+](=O)[O-])c1`, for which the cell number change was 5.46%. The AC50 under setting [2] is 6.51 µM [rising, single point].
In the case of `Cc1nn(-c2ccccc2)c(Cl)c1C(=O)NCc1ccccc1F`, the cell number change worked out at 12.2%. Besides, under setting [1], the AC50 is 29.1 µM [rising, single point].
For `CCOC(=O)C1CCN(C(=O)COC(=O)c2ccc(Br)o2)CC1`, the cell number change came out at 2.55%. Under setting [1], the AC50 was 0.58 µM [rising, full curve].
Turning to `Cc1cccc(NC(=O)CN2C(=O)NC(C)(c3ccc4c(c3)OCO4)C2=O)c1` (centres undefined), the cell number change was determined as 61.9%. Also, the AC50 under setting [2] was 16.4 µM [rising, partial curve].
Consider `COc1ccc(N2CCN(C(=O)COc3cccc4ccccc34)CC2)cc1`, for which the cell number change came out at 24.3%. For the same molecule, the AC50 under setting [1] is 3.26 µM [rising, full curve, poor fit].
As for `O=C(CN1CCN(c2ccc(O)cc2)CC1)N(C1CC1)C1CCS(=O)(=O)C1` (centres undefined), the cell number change was -2.53%. Further, the AC50 under setting [1] was 0.164 µM [falling, full curve, poor fit].
As for `COc1ccc(CC(=O)NCc2nnc(SCc3ccc([N+](=O)[O-])cc3)n2C)cc1`, the cell number change was found to be 33.8%. For the same molecule, the AC50 under setting [2] was 29.1 µM [rising, single point]. For the same molecule, the AC50 under setting [1] was 29.1 µM [rising, single point].
Take `O=C(OCC(=O)N(Cc1ccccc1)C1CCS(=O)(=O)C1)c1cc2c(s1)CCCC2` (centres undefined): the cell number change was -16%. Moreover, the AC50 under setting [1] was 0.00461 µM [rising, full curve, poor fit].
For `O=C(NCC(c1ccco1)N1CCc2ccccc2C1)c1c(F)cccc1F` (centres undefined), the cell number change is -5.32%. Moreover, the AC50 under setting [1] is 0.0082 µM [falling, full curve, poor fit].
For the molecule `CCOc1cc(/C=C2\CCC/C(=C\c3cc(Cl)c(O)c(OCC)c3)C2=O)cc(Cl)c1O`, the cell number change is -33%. The AC50 under setting [2] was 7.31 µM [falling, partial curve, poor fit]. Moreover, the AC50 under setting [1] is 10.3 µM [falling, partial curve].
Regarding `COc1ccccc1NC(=S)NC(=O)/C=C/c1ccco1`, the cell number change was -50%. In addition, the AC50 under setting [2] is 0.00461 µM [falling, full curve, poor fit]. Besides, the AC50 under setting [1] was 5.8 µM [rising, partial curve].
For `Cc1ccc(C(=O)c2c(NC(=O)c3ccccc3C)sc(C)c2C)cc1`, the cell number change is 119%. Besides, the AC50 under setting [2] was 16.4 µM [rising, partial curve]. Moreover, the AC50 under setting [1] was 8.2 µM [rising, partial curve].
